Data on 5 molecules can be found in publication PMC3904817.

Amino acid sequences for entries named in this document (tags omitted). A change or cut given only in a name is not applied to a line headed by its entry.
UniProt Q9VN77: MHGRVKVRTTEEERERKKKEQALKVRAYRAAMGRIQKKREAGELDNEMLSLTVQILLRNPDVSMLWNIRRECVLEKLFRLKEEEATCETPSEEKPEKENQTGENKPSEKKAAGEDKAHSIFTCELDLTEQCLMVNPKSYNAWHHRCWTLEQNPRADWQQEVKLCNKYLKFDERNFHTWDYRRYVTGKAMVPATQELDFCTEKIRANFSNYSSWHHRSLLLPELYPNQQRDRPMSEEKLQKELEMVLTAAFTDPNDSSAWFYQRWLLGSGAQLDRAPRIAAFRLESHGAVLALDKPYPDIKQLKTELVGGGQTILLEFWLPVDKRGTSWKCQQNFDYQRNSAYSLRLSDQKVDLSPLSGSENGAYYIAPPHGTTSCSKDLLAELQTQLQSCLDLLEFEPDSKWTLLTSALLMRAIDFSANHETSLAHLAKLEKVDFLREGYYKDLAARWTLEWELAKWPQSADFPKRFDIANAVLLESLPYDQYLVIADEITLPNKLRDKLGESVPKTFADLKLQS
UniProt Q9XZ68: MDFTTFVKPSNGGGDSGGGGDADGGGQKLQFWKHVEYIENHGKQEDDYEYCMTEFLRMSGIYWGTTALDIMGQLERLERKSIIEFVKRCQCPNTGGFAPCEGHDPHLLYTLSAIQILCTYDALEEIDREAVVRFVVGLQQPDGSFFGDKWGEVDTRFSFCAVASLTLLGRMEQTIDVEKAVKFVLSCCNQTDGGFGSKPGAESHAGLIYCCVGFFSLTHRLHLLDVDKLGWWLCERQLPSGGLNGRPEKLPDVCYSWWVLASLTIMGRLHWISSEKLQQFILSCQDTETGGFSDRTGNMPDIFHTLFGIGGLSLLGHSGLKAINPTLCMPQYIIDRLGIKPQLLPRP
UniProt Q9W501: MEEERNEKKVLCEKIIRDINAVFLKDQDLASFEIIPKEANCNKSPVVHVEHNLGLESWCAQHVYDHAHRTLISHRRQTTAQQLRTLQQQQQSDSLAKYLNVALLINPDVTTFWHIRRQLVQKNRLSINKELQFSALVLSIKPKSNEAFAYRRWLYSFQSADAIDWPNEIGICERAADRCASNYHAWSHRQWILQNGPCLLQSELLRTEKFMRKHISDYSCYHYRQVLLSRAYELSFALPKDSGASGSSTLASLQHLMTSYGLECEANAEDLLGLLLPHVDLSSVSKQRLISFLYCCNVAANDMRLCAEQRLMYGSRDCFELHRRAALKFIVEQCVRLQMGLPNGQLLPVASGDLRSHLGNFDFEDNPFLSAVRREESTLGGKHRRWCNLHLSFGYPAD
UniProt O18332: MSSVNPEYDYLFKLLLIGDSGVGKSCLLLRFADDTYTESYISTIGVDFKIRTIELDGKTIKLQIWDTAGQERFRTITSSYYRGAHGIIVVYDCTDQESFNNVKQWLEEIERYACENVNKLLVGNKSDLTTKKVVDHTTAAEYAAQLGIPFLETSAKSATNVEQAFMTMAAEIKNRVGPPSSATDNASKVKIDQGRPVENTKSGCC

Assay [1] deals with RabGGTα (PTAR3), HA-tagged (Drosophila) (UniProt Q9VN77). The assay is described as follows: co-IP; transfected Drosophila S2 cells, harvested 48 h after transfection; lysis buffer 50 mM Tris-HCl pH 7.5, 150 mM NaCl, 5% glycerol, 0.5% TritonX-100; lysate incubated with α-HA beads overnight; Western blot (Figure 5C-D). In general terms: A western blot detects proteins with antibodies after separation by electrophoresis.

Assay [2] addresses RabGGTβ (His–RabGGTβ–V5) (Drosophila) (UniProt Q9XZ68). The assay is described as follows: co-IP; RabGGTβ competition assay in S2 cells: RabGGTβ kept at a low level, RabGGTβ and Temp transfected at the same level, RabGGTα increased gradually; RabGGTβ pulled down by α-V5 beads (Figure 5E).
For assay [3], the target named is Tempura (Temp), HA-tagged (Drosophila) (UniProt Q9W501). Put plainly: co-IP; transfected Drosophila S2 cells, α-HA beads, same lysis buffer; Temp with Rab1 or Rab11, with or without cotransfected RabGGTβ and REP (Figure 7A-B).
Assay [4] deals with RabGGTα (PTAR3), HA-tagged (Drosophila) (UniProt Q9VN77). Put plainly: co-IP; transfected Drosophila S2 cells, harvested 48 h after transfection; lysis buffer 50 mM Tris-HCl pH 7.5, 150 mM NaCl, 5% glycerol, 0.5% TritonX-100; lysate incubated with α-HA beads overnight; Western blot (Figure 5C-D). The source holds these as a separate data set.
The target in assay [5] is Tempura (Temp), HA-tagged (Drosophila) (UniProt Q9W501). The description is as above.

Like-named read-outs stand apart in the source and are kept apart here. No constants are given. Whether binding was seen depends on the method and setting. Binding seen in cells or lysates may run through a third protein. Binding calls can cover weak binding; strength is not graded here. For part of these data: Where a sequence is shown, tags or fusion partners need not be part of it.

As for “RabGGTβ (His–RabGGTβ–V5) (from UniProt Q9XZ68)”, the binding entry in assay [1] is “binds”.
Regarding “Tempura (Temp), HA-tagged (from UniProt Q9W501)”, the binding entry in assay [2] is given as “binds”.
As to Rab1 (from UniProt O18332 1-205), in assay [3], the binding result was “binds”.

B1: Rab escort protein (REP), FLAG-tagged (protein, UniProt Q9V8W3 1-511)
chain: MLDDLPEQFDLVVIGTGFTESCIAAAGSRIGKSVLHLDSNEYYGDVWSSFSMDALCARLDQEVEPHSALRNARYTWHSMEKESETDAQSWNRDSVLAKSRRFSLDLCPRILYAAGELVQLLIKSNICRYAEFRAVDHVCMRHNGEIVSVPCSRSDVFNTKTLTIVEKRLLMKFLTACNDYGEDKCNEDSLEFRGRTFLEYLQAQRVTEKISSCVMQAIAMCGPSTSFEEGMQRTQRFLGSLGRYGNTPFLFPMYGCGELPQCFCRLCAVYGGIYCLKRAVDDIALDSNSNEFLLSSAGKTLRAKNVVSAPGYTPVSKGIELKPHISRGLFISSSPLGNEELNKGGGGVNLLRLLDNEGGREAFLIQLSHYTGACPEGLYIFHLTTPALSEDPASDLAIFTSQLFDQSDAQIIFSSYFTIAAQSSKSPAAEHIYYTDPPTYELDYDAAIANARDIFGKMFPDADFLPRAPDPEEIVVDGEDPSALNEHTLPEDLRAQLHDMQQATQEMDIQE
For B1, the binding result in assay [4] and in assay [5] was “binds” each time.

B2: Rab11 (protein, UniProt O18335 1-214)
chain: MGAREDEYDYLFKVVLIGDSGVGKSNLLSRFTRNEFNLESKSTIGVEFATRSIEVDGKTIKAQIWDTAGQERYRAITSAYYRGAVGALLVYDIAKHLTYENVERWLRELRDHADQNIVIMLVGNKSDLRHLRSVPTDEAKLFAERNGLSFIETSALDSTNVETAFQNILTEIYRIVSQKQIRDPPEGDVIRPSNVEPIDVKPTVTADVRKQCCQ
With B2, the binding entry in assay [3] was “binds”.
